Experimental data: the supplement of paper PMC10849652
The list shows a part of the results.

Chains of the proteins cited; added tags and fusions are not shown. Lines headed by an entry give the natural chain unless they say otherwise; changes in a name come on top.
UniProt Q96RI0: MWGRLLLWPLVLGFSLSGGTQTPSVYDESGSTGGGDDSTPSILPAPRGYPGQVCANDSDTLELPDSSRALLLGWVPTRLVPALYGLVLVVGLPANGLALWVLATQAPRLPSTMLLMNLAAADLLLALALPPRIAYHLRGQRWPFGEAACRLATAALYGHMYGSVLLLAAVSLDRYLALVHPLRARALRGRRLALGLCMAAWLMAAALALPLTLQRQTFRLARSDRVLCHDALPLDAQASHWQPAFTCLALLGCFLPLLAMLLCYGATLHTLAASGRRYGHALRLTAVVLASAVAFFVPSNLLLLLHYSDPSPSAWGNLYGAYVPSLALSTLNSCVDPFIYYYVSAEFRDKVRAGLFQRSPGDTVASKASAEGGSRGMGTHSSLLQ
UniProt Q9NVQ4: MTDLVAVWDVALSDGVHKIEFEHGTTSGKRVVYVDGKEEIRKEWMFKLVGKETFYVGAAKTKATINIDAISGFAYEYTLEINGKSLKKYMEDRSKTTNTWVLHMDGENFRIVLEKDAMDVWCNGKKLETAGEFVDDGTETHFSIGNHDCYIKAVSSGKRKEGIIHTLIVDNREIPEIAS
UniProt Q8N0U4: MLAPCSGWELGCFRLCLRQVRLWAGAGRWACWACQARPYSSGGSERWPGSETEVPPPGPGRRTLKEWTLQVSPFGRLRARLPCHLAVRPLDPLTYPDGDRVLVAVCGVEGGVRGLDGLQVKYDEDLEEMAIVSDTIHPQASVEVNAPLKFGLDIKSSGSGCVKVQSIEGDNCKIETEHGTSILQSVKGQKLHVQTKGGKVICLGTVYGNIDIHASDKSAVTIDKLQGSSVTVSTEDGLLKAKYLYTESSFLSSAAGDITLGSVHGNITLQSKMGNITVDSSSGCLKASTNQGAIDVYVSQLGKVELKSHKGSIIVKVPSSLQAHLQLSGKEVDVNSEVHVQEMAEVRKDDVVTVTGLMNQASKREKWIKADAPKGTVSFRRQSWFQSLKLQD
UniProt Q01780: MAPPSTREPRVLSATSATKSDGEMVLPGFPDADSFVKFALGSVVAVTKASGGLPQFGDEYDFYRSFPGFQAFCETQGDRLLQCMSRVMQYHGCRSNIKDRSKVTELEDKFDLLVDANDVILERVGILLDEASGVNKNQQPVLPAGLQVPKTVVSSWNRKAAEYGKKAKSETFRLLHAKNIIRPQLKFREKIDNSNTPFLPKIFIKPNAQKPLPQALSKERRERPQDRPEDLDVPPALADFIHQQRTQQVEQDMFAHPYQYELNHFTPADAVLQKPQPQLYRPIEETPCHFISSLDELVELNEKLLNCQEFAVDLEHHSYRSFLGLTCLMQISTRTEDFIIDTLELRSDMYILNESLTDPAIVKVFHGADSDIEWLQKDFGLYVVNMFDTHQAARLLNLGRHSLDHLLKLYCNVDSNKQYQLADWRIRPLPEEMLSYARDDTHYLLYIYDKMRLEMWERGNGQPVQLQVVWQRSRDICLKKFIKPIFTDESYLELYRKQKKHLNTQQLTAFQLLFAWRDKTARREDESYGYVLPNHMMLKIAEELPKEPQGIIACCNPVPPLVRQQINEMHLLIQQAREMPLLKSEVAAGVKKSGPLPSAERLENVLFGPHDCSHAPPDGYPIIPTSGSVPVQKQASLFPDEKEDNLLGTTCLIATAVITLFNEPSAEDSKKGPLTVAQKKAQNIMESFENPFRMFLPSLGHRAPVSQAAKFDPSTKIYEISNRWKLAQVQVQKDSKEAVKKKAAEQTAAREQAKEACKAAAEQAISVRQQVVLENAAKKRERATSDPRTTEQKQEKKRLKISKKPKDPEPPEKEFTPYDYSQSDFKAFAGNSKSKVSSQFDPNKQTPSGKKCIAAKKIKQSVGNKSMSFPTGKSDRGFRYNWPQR
UniProt Q5HYJ3: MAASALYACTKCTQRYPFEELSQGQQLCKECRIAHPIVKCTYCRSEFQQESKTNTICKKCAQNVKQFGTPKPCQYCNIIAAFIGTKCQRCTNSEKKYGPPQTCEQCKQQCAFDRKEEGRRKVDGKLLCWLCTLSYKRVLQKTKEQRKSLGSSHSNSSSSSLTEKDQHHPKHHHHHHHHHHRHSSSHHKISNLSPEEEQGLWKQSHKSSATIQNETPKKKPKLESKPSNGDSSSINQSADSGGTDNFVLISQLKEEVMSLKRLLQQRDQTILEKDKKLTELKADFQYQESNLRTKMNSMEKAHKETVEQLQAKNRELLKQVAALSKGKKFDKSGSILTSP
UniProt Q9H0Q0: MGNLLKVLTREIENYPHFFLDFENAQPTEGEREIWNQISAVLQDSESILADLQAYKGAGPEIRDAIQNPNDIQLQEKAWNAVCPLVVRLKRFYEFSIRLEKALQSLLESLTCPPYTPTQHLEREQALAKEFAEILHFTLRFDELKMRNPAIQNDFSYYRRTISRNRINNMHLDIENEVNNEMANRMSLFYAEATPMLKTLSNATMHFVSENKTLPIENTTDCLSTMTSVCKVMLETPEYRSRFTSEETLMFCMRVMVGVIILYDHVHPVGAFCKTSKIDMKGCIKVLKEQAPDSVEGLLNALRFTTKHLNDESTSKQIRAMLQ
UniProt O43909: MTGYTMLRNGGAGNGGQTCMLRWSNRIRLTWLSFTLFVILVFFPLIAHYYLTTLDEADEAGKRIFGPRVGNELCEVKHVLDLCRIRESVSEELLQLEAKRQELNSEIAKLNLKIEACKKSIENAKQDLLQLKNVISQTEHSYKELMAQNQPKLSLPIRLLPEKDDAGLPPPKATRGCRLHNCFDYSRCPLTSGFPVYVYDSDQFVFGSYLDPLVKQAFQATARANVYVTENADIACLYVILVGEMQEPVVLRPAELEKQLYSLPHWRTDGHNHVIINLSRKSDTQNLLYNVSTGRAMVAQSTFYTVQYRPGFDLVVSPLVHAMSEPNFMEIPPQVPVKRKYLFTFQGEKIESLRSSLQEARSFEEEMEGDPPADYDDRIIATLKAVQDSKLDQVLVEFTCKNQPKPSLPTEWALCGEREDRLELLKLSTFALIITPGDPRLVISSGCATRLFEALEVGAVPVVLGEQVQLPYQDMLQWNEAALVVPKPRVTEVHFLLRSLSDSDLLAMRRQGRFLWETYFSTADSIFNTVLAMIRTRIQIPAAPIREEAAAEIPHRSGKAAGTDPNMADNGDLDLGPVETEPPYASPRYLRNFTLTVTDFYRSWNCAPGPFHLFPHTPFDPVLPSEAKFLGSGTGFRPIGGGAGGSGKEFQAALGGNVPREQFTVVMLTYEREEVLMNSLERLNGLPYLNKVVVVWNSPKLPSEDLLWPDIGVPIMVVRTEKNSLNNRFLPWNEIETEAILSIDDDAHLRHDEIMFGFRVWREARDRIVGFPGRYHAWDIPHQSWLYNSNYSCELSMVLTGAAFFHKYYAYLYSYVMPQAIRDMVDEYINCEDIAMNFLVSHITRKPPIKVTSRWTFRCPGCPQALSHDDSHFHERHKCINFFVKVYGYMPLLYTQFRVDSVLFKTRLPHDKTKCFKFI
UniProt Q96DZ1: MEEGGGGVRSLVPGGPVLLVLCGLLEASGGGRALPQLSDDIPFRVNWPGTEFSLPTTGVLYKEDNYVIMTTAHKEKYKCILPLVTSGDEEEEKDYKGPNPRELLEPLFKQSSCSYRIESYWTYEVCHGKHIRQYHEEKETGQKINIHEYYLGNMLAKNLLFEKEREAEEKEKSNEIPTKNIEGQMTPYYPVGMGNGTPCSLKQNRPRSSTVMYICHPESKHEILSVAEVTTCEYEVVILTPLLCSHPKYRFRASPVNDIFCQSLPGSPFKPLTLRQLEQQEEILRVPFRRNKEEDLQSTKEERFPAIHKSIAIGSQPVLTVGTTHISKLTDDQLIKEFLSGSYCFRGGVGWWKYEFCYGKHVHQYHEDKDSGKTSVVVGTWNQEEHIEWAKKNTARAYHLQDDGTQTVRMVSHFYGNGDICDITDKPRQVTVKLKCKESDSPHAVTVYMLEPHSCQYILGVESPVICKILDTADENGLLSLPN
UniProt Q96PZ2, whole entry, looked up: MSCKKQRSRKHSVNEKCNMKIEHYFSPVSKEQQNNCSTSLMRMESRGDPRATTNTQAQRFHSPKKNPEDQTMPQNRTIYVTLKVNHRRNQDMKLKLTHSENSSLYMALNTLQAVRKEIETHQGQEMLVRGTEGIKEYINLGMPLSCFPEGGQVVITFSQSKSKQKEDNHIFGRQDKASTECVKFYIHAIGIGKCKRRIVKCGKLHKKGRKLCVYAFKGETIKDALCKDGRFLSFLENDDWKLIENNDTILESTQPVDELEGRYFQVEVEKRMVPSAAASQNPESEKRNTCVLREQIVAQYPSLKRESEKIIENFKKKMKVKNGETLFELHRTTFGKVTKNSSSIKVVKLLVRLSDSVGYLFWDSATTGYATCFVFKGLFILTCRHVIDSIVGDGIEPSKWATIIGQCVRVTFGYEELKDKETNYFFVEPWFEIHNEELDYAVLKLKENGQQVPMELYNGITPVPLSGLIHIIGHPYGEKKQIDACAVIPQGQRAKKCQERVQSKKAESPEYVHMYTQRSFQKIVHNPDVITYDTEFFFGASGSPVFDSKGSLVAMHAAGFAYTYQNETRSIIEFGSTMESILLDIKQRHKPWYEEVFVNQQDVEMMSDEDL
UniProt Q5JUQ0: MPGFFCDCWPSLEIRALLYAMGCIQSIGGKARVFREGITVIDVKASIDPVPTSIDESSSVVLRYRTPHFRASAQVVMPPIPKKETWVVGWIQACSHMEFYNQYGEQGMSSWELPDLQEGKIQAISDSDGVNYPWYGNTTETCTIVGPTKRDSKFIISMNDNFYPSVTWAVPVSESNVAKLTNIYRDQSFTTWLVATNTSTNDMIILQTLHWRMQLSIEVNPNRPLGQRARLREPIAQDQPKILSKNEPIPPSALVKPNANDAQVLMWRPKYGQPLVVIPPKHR
UniProt Q86UY5: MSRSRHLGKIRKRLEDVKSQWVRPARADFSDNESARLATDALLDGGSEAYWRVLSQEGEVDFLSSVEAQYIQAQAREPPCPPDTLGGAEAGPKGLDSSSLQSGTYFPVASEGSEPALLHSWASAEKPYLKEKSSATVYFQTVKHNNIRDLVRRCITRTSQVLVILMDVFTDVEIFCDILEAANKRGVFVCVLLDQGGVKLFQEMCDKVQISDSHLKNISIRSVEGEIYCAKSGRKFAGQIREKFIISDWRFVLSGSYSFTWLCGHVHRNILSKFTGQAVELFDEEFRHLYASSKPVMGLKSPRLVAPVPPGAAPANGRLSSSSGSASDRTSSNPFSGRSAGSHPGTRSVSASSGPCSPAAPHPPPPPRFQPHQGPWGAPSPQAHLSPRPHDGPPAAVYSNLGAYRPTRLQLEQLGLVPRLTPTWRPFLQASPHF
UniProt P10768: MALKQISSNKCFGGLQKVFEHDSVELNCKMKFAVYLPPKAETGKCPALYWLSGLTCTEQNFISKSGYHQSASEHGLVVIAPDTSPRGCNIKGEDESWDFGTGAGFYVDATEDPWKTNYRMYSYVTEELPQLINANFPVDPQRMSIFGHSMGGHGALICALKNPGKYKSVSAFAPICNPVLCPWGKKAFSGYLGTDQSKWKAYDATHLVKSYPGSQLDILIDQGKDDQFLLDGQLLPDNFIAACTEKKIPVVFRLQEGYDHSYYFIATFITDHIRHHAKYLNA
UniProt Q9UQ84: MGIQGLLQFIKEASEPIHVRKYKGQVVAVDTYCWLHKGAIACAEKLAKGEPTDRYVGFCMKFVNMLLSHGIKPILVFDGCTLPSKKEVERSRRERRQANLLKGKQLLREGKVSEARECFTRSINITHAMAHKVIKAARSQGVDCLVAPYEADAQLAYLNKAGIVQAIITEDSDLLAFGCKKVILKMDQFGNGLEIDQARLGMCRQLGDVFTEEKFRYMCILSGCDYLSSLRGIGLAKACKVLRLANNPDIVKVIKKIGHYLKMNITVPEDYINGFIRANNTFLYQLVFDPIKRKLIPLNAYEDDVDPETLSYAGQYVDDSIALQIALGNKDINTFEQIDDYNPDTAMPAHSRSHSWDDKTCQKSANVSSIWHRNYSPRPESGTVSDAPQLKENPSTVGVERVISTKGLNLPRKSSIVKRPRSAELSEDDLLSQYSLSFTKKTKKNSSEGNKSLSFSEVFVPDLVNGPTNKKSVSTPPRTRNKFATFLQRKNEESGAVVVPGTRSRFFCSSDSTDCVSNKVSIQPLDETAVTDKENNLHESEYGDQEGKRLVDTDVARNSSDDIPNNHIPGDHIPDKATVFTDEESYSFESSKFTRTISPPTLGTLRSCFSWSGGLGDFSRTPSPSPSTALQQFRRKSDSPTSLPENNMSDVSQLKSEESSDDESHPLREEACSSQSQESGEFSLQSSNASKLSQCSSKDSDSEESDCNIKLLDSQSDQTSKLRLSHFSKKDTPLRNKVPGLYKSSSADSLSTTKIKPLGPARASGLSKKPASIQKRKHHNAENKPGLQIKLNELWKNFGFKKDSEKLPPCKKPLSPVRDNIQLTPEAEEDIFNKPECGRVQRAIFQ
UniProt H0Y354, whole entry, looked up: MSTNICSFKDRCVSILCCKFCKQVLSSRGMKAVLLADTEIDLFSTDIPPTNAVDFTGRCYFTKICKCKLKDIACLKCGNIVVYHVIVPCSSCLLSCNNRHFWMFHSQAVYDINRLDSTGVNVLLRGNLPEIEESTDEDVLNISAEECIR

Columns and labels:
Experiment in all cases: log2 fold change, soluble protein after heating vs DMSO (PISA); higher = thermal stabilisation; K562 lysate, 10 uM; active = over 0.2 and 3.5 SD of the protein, either way, in both replicates (recomputed)
[1] = compound: NCC(=O)Nc1ccc(-n2nc(C(F)(F)F)cc2-c2ccc3c(ccc4ccccc43)c2)cc1
In short: (§1)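 K562 pellets were dounce-homogenised in PBS pH 7.4 with 1 mM MgCl2, and the crude extract at 1 mg/mL protein was treated with 10 μM compound for 30 min. Aliquots were heated for 3 min across 48°C-58°C, pooled, and brought to 0.5% NP-40 at 4°C; soluble protein was the supernatant after 21,000xg for 90 min. Soluble protein was quantified by TMTpro 16plex LC-MS/MS with channel sums equalised, and reported as log2 fold change in thermal stability against DMSO controls, with values from duplicates.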

[2] = compound: O=C(CCCCCCC(=O)Nc1ccccc1)NO [vorinostat]
In short: as §1

[3] = compound: O=C(O)c1ccc2c(c1)nc(Nc1cccc(Cl)c1)c1ccncc12 [silmitasertib]
In short: as §1

[4] = compound: O=C1NC(=O)C(c2cnc3ccccn23)=C1c1cn2c3c(cc(F)cc13)CN(C(=O)N1CCCCC1)CC2
In short: as §1

[5] = compound: c1cn2cc(-c3ccc4cn[nH]c4c3)nc(Nc3ccc(N4CCOCC4)cc3)c2n1 [entospletinib]
In short: as §1

Measured: log2 fold change

ETF1 (UniProt P62495)
inactive: [1] 0.009 | [2] 0.044 | [3] -0.001 | [4] -0.011 | [5] 0.003

F2RL3 (UniProt Q96RI0)
inactive: [1] -0.035 | [2] 0.079 | [3] -0.028

FAM210B (UniProt Q96KR6)
inactive: [1] -0.069 | [2] 0.056 | [3] 0.016 | [4] -0.051 | [5] -0.078

FAIM isoform 2 (UniProt Q9NVQ4)
inactive: [1] 0.055 | [2] 0.069 | [3] -0.094 | [4] 0.115 | [5] -0.036

ERVK3-1, A0A0U1RQV1
inactive: [1] 0.077 | [2] 0.044 | [3] -0.062 | [4] 0.047 | [5] 0.017

FAM160B2 (UniProt Q86V87)
inactive: [1] -0.237 | [2] 0.093 | [3] -0.024 | [4] 0.114 | [5] 0.021

ESF1 (UniProt Q9H501)
inactive: [1] -0.004 | [2] -0.038 | [3] 0.026 | [4] -0.045 | [5] -0.013

FAM185A (UniProt Q8N0U4)
inactive: [1] 0.343 | [2] 0.17 | [3] -0.077 | [4] 0.068

EXOSC10 (UniProt Q01780)
inactive: [1] -0.015 | [2] 0.012 | [3] 0.002 | [4] 0 | [5] 0.014

FAM76B (UniProt Q5HYJ3)
inactive: [1] -0.018 | [2] 0.026 | [3] 0 | [4] 0.012 | [5] -0.014

FAM204A (UniProt Q9H8W3)
inactive: [1] -0.057 | [2] -0.211 | [3] -0.095 | [4] 0.044

FAM49A (UniProt Q9H0Q0)
inactive: [1] 0.075 | [2] -0.274 | [3] 0.167 | [4] 0.218 | [5] -0.083

ERP29 (UniProt P30040)
inactive: [1] -0.032 | [2] 0.114 | [3] -0.024 | [4] -0.006 | [5] -0.004

EXTL3 (UniProt O43909)
inactive: [1] -0.104 | [2] 0.153 | [3] 0.055 | [4] -0.062

EXTL2 (UniProt Q9UBQ6)
inactive: [1] -0.171 | [2] 0.189 | [3] -0.053 | [4] 0.01 | [5] -0.036

FAM234A (UniProt Q9H0X4)
inactive: [1] 0.074 | [2] 0.112 | [3] -0.055 | [4] -0.007 | [5] -0.02

ERLEC1 (UniProt Q96DZ1)
inactive: [1] 0.004 | [2] 0.055 | [3] 0.04 | [4] -0.002 | [5] 0

FAM111A (UniProt Q96PZ2)
inactive: [1] 0.036 | [2] -0.364 | [3] 0.1 | [4] 0.048 | [5] 0.044

FAM78A (UniProt Q5JUQ0)
inactive: [1] 0.032 | [2] 0.107 | [3] 0.015 | [4] -0.018 | [5] 0.028

FAM83A (UniProt Q86UY5)
active: [2] -0.417
inactive: [1] -0.049 | [3] -0.034 | [4] -0.052 | [5] -0.002

FAM126A (UniProt Q9BYI3)
inactive: [1] -0.085 | [2] -0.378 | [3] 0.112 | [4] 0.11

Reprinted from the entries so far (7 entries):
EXTL3 (UniProt O43909)
inactive: [1] -0.104 | [2] 0.153 | [3] 0.055 | [4] -0.062

EXTL2 (UniProt Q9UBQ6)
inactive: [1] -0.171 | [2] 0.189 | [3] -0.053 | [4] 0.01 | [5] -0.036

FAM234A (UniProt Q9H0X4)
inactive: [1] 0.074 | [2] 0.112 | [3] -0.055 | [4] -0.007 | [5] -0.02

ERLEC1 (UniProt Q96DZ1)
inactive: [1] 0.004 | [2] 0.055 | [3] 0.04 | [4] -0.002 | [5] 0

FAM111A (UniProt Q96PZ2)
inactive: [1] 0.036 | [2] -0.364 | [3] 0.1 | [4] 0.048 | [5] 0.044

FAM78A (UniProt Q5JUQ0)
inactive: [1] 0.032 | [2] 0.107 | [3] 0.015 | [4] -0.018 | [5] 0.028

FAM83A (UniProt Q86UY5)
active: [2] -0.417
inactive: [1] -0.049 | [3] -0.034 | [4] -0.052 | [5] -0.002

(continued)

ESD (UniProt P10768)
inactive: [1] 0.028 | [2] 0.009 | [3] -0.008 | [4] -0.004 | [5] 0.034

EXOSC9 (UniProt Q06265)
inactive: [1] -0.005 | [2] 0.194 | [3] 0.004 | [4] -0.005 | [5] 0.021

EXO1 (UniProt Q9UQ84)
inactive: [1] 0.051 | [2] -0.043 | [3] 0.17 | [4] -0.037

FAM72C (UniProt H0Y354)
inactive: [1] -0.169

FAM192A (UniProt Q9GZU8)
inactive: [1] -0.025 | [2] 0.096 | [3] 0.011 | [4] -0.05 | [5] 0.006
